US8722690B2, “Mesoionic pesticides” (E I du Pont de Nemours and Company, priority 2009, dated 2014)
Structures can show the parent of a compound that is named as a salt. Where two headings read alike, the source gives them in different places. Some entries share one result that the patent states for a list of compounds. At least one structure is not confirmed: it was looked up by name or label, or the drawing left a doubt.

How the values were obtained:
[1] = system: diamondback moth (Plutella xylostella); experiment: Test A: control of diamondback moth on radish plant, foliar spray; assay type: in vivo; settings: 6 days, very good to excellent levels of control efficacy
[2] = system: potato leafhopper (Empoasca fabae); assay type: in vivo; settings: 6 days, Soleil bean plant, very good to excellent levels of control efficacy
Procedure: For evaluating control of potato leafhopper (Empoasca fabae) through contact and/or systemic means, the test unit consisted of a small open container with a 5-6-day-old Soleil bean plant (primary leaves emerged) inside. White sand was added to the top of the soil and one of the primary leaves was excised prior to application.
Test compounds were formulated and sprayed at 50 ppm and/or 10 ppm, and the tests were replicated three times as described for Test A. After spraying, the test units were allowed to dry for 1 h before they were post-infested with 5 potato leafhoppers (18-21-day-old adults). A black, screened cap was placed on the top of each test unit, and the test units were held for 6 days in a growth chamber at 24° C. and 70% relative humidity. Each test unit was then visually assessed for insect mortality.

Structure (SMILES)	control efficacy: feeding damage (40% or less feeding damage and/or 100% mortality) ([1]; sprayed at 10 ppm) [%]	control efficacy: feeding damage (40% or less feeding damage and/or 100% mortality) ([1]; sprayed at 50 ppm) [%]	control efficacy: mortality ([2]; sprayed at 50 ppm) [%]	control efficacy: mortality ([2]; sprayed at 10 ppm) [%]
COc1cccn2c(=O)c(-c3ccccc3F)c([O-])[n+](Cc3cnc(Cl)s3)c12 [Compound 41]	≤ 40	≤ 40	≥ 80	
Cc1cccn2c(=O)c(-c3cccc(OC(F)(F)F)c3)c([O-])[n+](Cc3cncnc3)c12 [Compound 43, 2-hydroxy-9-methyl-4-oxo-1-(5-pyrimidinylmethyl)-3-[3-(trifluoromethoxy)phenyl]-4H-pyrido[1,2-a]pyrimidinium Inner Salt]		≤ 40	≥ 80	
COc1ccc(OC)c(-c2c([O-])[n+](Cc3cnc(Cl)s3)c3c(C)cccn3c2=O)c1 [Compound 48]	≤ 40	≤ 40	≥ 80	≥ 80
Cc1cccn2c(=O)c(-c3cccc(C(F)(F)F)c3)c([O-])[n+](Cc3ccc(F)nc3)c12 [Compound 75]		≤ 40	≥ 80	≥ 80
Cc1cccn2c(=O)c(-c3cccc(C(F)(F)F)c3)c([O-])[n+](CC(F)(F)F)c12 [Compound 107]		≤ 40	≥ 80	
COc1ccc(-c2c([O-])[n+](Cc3cnc(Cl)s3)c3c(C)cccn3c2=O)cc1OC [Compound 114]	≤ 40	≤ 40	≥ 80	≥ 80
COc1ccc(-c2c([O-])[n+](Cc3cnc(Cl)s3)c3c(C)cccn3c2=O)c(OC)c1 [Compound 116]		≤ 40	≥ 80	≥ 80
C=Cc1cccn2c(=O)c(-c3ccccc3)c([O-])[n+](Cc3cnc(Cl)s3)c12 [Compound 153]		≤ 40	≥ 80	
C=Cc1cccn2c(=O)c(-c3ccccc3F)c([O-])[n+](Cc3cnc(Cl)s3)c12 [Compound 155]		≤ 40	≥ 80	
Cc1cccn2c(=O)c(-c3cccc(C(F)(F)F)c3)c([O-])[n+](Cc3cn(C)cn3)c12 [Compound 156]	≤ 40	≤ 40	≥ 80	
Cc1cc(Br)ccc1-c1c([O-])[n+](Cc2cnc(Cl)s2)c2c(C)cccn2c1=O [Compound 169]	≤ 40	≤ 40	≥ 80	≥ 80
O=c1c(-c2ccccc2F)c([O-])[n+](Cc2cnc(Cl)s2)c2c(Cl)cccn12 [Compound 186]	≤ 40	≤ 40	≥ 80	
Cc1ccccc1-c1c([O-])[n+](Cc2cnc(Cl)s2)c2c(C)cccn2c1=O [Compound 204]		≤ 40	≥ 80	
Cc1cccn2c(=O)c(-c3ccccc3Cl)c([O-])[n+](Cc3cnc(Cl)s3)c12 [Compound 206]	≤ 40	≤ 40	≥ 80	≥ 80
